Among the data in publication PMC3648552 are binding values, retold here.

Chains of the proteins cited; added tags and fusions are not shown.
UniProt O94763: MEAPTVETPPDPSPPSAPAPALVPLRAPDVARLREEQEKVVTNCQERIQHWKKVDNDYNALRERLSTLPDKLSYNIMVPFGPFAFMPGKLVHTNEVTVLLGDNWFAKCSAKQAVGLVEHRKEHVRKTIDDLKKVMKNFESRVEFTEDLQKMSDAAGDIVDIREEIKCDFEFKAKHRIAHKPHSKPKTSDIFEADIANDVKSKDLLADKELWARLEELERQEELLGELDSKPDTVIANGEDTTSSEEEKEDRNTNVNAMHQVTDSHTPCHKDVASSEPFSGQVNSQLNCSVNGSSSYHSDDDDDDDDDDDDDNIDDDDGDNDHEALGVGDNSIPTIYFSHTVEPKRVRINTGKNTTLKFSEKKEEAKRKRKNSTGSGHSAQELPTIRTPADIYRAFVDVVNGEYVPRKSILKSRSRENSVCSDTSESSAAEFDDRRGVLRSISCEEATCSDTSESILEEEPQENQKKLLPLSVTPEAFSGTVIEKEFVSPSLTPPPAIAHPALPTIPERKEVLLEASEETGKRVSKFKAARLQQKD
UniProt Q9UBK9: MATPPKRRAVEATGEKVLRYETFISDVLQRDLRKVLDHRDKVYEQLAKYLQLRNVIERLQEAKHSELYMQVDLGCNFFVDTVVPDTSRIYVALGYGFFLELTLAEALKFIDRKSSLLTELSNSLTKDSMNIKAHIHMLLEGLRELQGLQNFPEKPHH
UniProt Q9NUG6: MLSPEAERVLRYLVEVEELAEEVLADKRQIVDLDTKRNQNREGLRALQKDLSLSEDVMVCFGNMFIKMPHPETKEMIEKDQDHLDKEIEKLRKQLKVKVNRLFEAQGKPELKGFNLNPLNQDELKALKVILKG
UniProt Q9Y265: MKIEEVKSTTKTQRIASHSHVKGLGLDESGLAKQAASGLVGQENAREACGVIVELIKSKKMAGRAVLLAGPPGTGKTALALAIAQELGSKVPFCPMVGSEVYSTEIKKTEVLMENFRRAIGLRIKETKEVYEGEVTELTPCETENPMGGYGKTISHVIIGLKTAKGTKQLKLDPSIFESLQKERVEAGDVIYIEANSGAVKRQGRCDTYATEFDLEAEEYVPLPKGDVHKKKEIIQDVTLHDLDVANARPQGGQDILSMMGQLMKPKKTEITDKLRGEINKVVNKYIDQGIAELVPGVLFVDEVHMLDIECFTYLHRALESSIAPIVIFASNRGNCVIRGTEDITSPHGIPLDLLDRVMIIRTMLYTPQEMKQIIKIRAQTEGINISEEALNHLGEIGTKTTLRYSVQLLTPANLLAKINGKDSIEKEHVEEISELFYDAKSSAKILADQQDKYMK

No constants are given. Whether binding was seen depends on the method and setting. Binding seen in cells or lysates may run through a third protein. Some binding calls cover weakened binding; strength is not graded here.

Experiment [1] has as its target FLAG-URI alpha (Unconventional prefoldin RPB5 Interactor), stably overexpressed in LNCaP cells (UniProt O94763). Kind of experiment: co-IP; lysates of LNCaP-vector and LNCaP-URI stable cells; precipitation with a monoclonal anti-URI antibody, a FLAG antibody or a polyclonal anti-Art-27 antibody; Western blot. (A western blot detects proteins with antibodies after separation by electrophoresis.)

Experiment [2] deals with androgen receptor trapped clone-27 (Art-27), endogenous in LNCaP cells (human (endogenous in LNCaP)) (UniProt Q9UBK9). Described as above.
For experiment [3], the target named is endogenous URI of LNCaP cells (human (endogenous in LNCaP)) (UniProt O94763). The experiment is described as above.
For experiment [4], the target named is FLAG-URI wild type, transfected in 293 cells (pcDNA3-FLAG-URI) (UniProt O94763). Briefly: co-IP; 293 (HEK293) cells transfected with FLAG-URI constructs and RPB5, PDRG1 or HA-Art-27; lysed 48 h later; URI precipitated with FLAG antibodies, Western blot; for RPB5 with or without 25 µM MG132.
The target in experiment [5] is FLAG-URI alpha (Unconventional prefoldin RPB5 Interactor), stably overexpressed in LNCaP cells (UniProt O94763). Kind of experiment: co-IP; nuclear extracts of LNCaP cells stably overexpressing URI; URI precipitated; Western blot for RUVBL1 and RUVBL2.

As to “P53 and DNA damage-Regulated Gene 1 (PDRG1), endogenous in LNCaP cells (from UniProt Q9NUG6 1-133)”, the binding result in experiment [1], in experiment [2] and in experiment [3] was “binds” each time.

On to “PDRG1 overexpressed in HEK293 cells (PDRG1 in pCMV6-XL5) (from UniProt Q9NUG6 1-133)”, for which the binding entry in experiment [4] is listed as “binds”.

On to “RUVBL1, endogenous in LNCaP cells (from UniProt Q9Y265 1-456)”, for which the binding entry in experiment [5] is “binds”.
